US20220162259A1 (KANEKA CORPORATION, priority 2019, published 2022)

Assay: general procedure: Fmoc solid-phase peptide synthesis; Rink Amide resin (0.2 mmol/g); Wang resin (0.66 mmol/g)

Substance “{FITC-Ahx}-CMLYIVPYFSVGC-NH2 (linker 1-13 via X1)” has a conjugation yield (conjugation step) of 40%.
“{Fmoc-Ahx}-CMLYIVPYFSVGC-NH2 (cysteine pairing not given here)” showed a cyclisation yield (cyclisation step) of 97%.

Numbered stars: 1 amine (or outer) side, 2 acyl side, 3 side chain; on linkers, the order of the positions; unused ones are H or OH. Bridge positions count the residues as written; N and C are the ends. * marks the point of attachment. X1 = NC(N)=NCCNC(=O)CCOCC(COCCC(=O)NCCN=C(N)N)(COCCC(=O)NCCN=C(N)N)NC(=O)CON=C(C[*:1])C[*:2]; FITC = O=C1OC2(c3ccc(O)cc3Oc3cc(O)ccc32)c2ccc(NC(=S)*)cc21; Fmoc = O=C(OCC1c2ccccc2-c2ccccc21)*; Ahx = NCCCCCC(=O)O
